According to patent US20250243203A1, “NICOTINAMIDE- AND BENZAMIDE-BASED COMPOUNDS, CONJUGATES, AND COMPOSITIONS AS INHIBITORS OF TRANSLATIONAL- AND TRANSCRIPTIONAL-RELATED KINASES” (PURDUE RESEARCH FOUNDATION, priority 2022, published 2025):
For at least one compound, name, drawing or mass did not settle the structure.

What was measured:
[1] = molecular target: T1, AXL receptor tyrosine kinase (AXL) (Homo sapiens, UniProt P30530); assay: KINOMEscan competition binding assay (Eurofins DiscoverX), AXL
T1 construct: purchased Eurofins DiscoverX (KINOMEscan service)
T1 sequence (P30530 26-894): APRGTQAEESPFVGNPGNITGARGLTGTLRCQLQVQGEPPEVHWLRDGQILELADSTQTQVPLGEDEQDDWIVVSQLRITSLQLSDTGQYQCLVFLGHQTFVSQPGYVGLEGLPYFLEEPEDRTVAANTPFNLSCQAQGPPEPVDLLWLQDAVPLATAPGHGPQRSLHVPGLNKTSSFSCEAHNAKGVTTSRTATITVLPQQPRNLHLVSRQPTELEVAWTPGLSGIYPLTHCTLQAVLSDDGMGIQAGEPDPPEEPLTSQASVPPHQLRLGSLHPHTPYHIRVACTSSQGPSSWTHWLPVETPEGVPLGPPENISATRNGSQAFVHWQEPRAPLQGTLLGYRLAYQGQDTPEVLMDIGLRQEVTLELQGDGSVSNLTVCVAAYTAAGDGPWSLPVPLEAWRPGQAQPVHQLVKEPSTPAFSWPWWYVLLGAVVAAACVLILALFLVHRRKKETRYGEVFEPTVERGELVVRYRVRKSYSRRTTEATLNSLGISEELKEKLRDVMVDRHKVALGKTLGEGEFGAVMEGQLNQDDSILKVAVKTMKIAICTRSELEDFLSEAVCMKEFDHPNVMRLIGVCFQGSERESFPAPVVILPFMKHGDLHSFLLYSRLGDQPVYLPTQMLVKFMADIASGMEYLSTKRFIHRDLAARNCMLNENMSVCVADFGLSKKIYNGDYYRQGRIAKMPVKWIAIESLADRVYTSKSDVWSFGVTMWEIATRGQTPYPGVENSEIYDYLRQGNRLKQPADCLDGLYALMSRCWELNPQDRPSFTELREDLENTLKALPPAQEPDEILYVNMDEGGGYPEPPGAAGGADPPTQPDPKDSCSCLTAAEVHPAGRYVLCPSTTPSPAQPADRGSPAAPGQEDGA
Experimental: The affinity of several compounds hereof having a substituent on the imidazo[1,2-b]pyridazine moiety at position-6, wherein the substituent comprised one or more ring moieties was evaluated with respect to two TAM kinases: AXL and MERTK. […] The assay uses DNA-tagged kinase, an immobilized ligand, and the test compound. Quantitative polymerase chain reaction (PCR) of the DNT tag was then used to measure the ability of the tested compound to displace the immobilized ligand.

[2] = molecular target: T2, MER Proto-Oncogene tyrosine kinase (MERTK) (Homo sapiens, UniProt Q12866); assay: KINOMEscan competition binding assay (Eurofins DiscoverX), MERTK
T2 construct: purchased Eurofins DiscoverX (KINOMEscan service)
T2 sequence (Q12866 21-999): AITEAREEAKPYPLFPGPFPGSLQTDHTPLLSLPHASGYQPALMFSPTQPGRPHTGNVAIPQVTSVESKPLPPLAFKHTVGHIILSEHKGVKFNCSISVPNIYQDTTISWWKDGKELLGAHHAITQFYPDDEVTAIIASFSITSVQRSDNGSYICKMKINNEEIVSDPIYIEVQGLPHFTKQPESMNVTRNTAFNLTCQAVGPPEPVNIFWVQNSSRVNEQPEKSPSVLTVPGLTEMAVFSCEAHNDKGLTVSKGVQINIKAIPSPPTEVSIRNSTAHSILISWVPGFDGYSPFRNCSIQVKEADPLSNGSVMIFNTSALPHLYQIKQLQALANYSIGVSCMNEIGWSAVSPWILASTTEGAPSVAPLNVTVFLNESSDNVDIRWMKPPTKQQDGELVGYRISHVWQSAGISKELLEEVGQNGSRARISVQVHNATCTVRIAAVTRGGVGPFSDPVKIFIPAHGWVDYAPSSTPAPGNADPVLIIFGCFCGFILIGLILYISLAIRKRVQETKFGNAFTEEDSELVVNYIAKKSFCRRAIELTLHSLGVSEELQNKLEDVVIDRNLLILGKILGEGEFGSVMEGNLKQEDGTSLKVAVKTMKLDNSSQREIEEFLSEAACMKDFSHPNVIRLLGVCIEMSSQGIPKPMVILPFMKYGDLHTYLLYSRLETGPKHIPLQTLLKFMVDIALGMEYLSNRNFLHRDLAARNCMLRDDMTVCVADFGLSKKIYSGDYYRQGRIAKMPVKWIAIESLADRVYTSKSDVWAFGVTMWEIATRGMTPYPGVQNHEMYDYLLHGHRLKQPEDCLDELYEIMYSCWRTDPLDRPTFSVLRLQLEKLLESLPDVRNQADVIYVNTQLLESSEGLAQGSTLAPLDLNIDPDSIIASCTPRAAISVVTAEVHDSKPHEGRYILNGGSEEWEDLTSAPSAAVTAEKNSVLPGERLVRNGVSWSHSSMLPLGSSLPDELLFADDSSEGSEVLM
Experimental: The affinity of several compounds hereof having a substituent on the imidazo[1,2-b]pyridazine moiety at position-6, wherein the substituent comprised one or more ring moieties was evaluated with respect to two TAM kinases: AXL and MERTK. Perhaps more specifically, the equilibrium dissociation constant between each of compounds HSND141, compound HSND149, HSND150, HSND151, and HSND80 and AXL and MERTK was evaluated at Eurofins DiscoverX using KINOMEscan™, which is a competition binding assay that quantitively measured the ability of each tested compound to displace an immobilized, active-site directed ligand. The assay uses DNA-tagged kinase, an immobilized ligand, and the test compound. Quantitative polymerase chain reaction (PCR) of the DNT tag was then used to measure the ability of the tested compound to displace the immobilized ligand.

Cc1ccc(C(=O)Nc2ccc(CN3CCN(C)CC3)c(C(F)(F)F)c2)cc1C#Cc1cnc2cccnn12 [ponatinib, Ponatinib, reference compound]
AXL targeting [1]: not targeted | MERTK targeting [2]: not targeted
